Reference: the supplement of paper PMC10849652
The list shows a part of the results. Residues, ends and D or L forms follow the SMILES beside them. *: point of attachment. Cbz = O=C(OCc1ccccc1)*

Amino acid sequences for entries named in this document (tags omitted). A change or cut given only in a name is not applied to a line headed by its entry.
UniProt Q9P258, whole entry, looked up: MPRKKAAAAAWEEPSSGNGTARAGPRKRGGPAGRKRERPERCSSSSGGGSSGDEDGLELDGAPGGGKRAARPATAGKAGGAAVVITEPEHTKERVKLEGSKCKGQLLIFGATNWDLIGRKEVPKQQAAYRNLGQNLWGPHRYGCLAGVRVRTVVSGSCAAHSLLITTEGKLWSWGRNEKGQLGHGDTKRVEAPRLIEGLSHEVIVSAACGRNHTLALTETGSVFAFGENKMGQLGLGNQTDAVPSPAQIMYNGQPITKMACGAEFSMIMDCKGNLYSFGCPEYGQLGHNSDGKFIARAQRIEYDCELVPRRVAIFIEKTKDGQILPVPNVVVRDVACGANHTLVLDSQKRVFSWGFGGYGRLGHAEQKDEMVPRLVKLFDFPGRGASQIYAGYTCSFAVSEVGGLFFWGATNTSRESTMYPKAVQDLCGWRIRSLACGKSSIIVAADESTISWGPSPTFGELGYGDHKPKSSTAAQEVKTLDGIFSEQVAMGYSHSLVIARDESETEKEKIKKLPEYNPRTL
UniProt O15258: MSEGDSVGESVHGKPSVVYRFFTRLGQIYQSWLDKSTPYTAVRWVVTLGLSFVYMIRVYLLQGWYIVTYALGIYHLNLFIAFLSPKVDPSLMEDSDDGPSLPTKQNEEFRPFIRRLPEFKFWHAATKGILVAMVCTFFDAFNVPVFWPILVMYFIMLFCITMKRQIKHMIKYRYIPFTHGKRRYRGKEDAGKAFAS
UniProt Q6NUQ1: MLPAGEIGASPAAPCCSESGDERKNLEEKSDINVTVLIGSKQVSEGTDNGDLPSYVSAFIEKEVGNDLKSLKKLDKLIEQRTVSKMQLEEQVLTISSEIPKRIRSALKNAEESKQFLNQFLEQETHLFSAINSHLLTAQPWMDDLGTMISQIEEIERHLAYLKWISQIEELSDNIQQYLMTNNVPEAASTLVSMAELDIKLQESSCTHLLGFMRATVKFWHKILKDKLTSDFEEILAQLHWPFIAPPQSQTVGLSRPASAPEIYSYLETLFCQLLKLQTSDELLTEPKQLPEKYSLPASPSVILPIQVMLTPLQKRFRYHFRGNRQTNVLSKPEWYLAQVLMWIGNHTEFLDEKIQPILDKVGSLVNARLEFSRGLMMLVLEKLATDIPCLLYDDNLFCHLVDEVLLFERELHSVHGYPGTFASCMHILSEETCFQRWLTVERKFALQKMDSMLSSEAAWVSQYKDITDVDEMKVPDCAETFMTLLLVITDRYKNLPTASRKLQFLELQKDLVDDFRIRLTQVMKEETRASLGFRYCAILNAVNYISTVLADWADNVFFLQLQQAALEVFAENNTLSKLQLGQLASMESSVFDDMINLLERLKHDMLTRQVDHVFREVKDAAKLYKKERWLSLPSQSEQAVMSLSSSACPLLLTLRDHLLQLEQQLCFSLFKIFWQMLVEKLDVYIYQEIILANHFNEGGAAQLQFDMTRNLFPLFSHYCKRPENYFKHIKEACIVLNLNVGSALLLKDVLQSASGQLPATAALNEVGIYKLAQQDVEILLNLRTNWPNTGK
UniProt Q9H871: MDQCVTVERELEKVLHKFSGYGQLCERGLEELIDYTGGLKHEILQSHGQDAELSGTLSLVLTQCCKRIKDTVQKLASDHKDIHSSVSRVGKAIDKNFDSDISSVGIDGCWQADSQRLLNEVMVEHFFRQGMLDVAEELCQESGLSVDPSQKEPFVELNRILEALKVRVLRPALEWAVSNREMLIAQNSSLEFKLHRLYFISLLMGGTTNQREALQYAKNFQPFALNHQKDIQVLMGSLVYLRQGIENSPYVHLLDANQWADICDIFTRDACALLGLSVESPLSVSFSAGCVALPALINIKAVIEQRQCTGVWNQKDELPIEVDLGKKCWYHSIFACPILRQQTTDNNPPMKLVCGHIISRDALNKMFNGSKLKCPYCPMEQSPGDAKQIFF
UniProt Q9BV68: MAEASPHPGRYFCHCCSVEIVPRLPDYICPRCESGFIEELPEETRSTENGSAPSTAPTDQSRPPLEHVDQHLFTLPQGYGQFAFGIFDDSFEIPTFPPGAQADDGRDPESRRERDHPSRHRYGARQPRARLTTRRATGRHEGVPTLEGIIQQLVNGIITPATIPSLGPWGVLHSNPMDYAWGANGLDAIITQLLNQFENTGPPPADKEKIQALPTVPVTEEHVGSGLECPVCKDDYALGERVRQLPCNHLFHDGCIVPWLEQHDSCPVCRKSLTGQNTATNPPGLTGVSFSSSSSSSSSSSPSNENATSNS
UniProt Q8TDP1: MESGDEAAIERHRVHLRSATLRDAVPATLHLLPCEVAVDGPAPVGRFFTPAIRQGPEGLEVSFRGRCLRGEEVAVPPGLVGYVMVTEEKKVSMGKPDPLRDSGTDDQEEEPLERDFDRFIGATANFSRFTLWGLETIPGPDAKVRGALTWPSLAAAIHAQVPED
UniProt Q8IUF8: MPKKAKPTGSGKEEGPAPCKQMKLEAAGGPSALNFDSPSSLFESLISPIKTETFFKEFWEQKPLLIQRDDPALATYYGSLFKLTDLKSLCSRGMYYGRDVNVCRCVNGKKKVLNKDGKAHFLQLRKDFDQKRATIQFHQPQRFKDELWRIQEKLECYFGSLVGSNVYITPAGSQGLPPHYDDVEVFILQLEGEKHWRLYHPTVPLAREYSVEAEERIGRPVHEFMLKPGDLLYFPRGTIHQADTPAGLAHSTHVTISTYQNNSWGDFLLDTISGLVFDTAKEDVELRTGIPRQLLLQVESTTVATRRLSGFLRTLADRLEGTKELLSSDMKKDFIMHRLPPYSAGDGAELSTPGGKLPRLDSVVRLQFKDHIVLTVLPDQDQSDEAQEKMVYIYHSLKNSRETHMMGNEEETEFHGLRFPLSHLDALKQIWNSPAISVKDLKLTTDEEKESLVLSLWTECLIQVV
UniProt Q96AA3: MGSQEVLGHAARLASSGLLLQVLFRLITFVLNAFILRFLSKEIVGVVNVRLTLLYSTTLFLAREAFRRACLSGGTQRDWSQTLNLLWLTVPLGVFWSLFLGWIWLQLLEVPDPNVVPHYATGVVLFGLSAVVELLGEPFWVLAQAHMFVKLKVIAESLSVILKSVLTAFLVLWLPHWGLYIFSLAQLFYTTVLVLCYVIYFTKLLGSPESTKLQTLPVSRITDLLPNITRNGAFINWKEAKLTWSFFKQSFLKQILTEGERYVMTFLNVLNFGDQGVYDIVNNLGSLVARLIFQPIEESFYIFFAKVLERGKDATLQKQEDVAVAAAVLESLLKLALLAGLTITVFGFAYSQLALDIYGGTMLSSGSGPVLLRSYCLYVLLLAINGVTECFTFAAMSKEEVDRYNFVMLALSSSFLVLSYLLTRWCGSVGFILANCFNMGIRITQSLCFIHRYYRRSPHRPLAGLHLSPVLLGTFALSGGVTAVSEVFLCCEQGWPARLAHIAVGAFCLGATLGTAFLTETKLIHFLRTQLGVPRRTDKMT
UniProt Q8TAC1: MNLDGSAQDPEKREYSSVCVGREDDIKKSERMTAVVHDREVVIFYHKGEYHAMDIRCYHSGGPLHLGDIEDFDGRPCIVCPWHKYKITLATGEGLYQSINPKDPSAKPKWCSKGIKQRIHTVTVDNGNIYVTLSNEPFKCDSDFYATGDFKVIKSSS
UniProt Q6NUK4: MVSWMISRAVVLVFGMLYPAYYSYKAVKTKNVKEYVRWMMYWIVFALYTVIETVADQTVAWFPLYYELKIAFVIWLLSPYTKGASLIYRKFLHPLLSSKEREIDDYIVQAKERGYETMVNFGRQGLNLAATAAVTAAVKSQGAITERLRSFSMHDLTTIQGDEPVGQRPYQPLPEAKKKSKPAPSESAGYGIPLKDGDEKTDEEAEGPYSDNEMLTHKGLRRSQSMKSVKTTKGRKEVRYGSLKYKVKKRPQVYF
UniProt Q5XPI4: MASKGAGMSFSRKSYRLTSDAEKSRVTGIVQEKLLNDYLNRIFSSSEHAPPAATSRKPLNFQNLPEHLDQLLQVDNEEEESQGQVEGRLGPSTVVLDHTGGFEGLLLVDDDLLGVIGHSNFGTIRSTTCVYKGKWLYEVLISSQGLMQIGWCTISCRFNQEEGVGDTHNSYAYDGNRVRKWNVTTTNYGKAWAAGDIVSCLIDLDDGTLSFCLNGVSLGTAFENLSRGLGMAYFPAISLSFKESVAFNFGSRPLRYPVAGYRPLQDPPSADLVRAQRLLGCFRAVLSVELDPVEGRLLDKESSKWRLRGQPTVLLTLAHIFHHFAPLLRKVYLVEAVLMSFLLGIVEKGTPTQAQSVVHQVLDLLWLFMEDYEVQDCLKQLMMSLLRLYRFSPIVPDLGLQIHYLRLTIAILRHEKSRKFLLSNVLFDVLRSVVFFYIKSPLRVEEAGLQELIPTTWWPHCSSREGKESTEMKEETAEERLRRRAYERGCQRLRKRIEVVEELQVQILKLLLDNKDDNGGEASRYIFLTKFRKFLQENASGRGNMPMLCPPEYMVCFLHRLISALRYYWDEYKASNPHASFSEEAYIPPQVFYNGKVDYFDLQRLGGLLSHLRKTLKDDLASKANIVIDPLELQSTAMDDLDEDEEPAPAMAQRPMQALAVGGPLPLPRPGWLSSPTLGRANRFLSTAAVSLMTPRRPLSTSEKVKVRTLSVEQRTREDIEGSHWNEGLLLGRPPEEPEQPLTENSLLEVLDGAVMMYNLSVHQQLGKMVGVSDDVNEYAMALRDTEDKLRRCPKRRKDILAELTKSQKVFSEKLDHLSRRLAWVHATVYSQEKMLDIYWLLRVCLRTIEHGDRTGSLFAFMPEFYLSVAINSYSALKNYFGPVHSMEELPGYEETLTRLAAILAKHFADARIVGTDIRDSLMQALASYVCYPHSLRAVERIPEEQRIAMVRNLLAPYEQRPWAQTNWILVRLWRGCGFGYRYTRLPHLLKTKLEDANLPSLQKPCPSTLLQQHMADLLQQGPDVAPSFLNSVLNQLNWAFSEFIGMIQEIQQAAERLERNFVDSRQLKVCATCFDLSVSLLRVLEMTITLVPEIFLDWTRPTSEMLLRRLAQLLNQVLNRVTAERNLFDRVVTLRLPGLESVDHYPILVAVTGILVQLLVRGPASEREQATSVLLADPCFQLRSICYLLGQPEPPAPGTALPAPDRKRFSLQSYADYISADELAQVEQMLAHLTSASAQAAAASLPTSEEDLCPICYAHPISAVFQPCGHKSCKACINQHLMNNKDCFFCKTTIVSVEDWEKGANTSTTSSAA
UniProt Q96PM5: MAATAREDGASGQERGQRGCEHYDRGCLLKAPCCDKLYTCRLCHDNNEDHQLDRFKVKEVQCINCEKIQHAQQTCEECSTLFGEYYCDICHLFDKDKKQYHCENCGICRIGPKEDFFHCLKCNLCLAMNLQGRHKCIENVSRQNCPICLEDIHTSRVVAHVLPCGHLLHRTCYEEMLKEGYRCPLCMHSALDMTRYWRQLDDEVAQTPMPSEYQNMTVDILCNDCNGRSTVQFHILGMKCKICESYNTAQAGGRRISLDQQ
UniProt Q06587: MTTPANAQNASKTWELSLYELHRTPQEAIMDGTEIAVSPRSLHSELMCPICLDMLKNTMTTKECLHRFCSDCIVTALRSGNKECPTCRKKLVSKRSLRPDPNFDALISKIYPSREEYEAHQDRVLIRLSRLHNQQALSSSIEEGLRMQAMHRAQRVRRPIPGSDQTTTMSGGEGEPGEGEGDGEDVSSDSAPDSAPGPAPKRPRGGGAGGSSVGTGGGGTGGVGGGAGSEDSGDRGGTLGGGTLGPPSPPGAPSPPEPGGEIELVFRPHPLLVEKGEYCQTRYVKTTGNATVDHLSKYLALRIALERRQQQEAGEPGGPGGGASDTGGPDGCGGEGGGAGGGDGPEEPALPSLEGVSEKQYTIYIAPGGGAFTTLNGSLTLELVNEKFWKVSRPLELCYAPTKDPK
UniProt Q9BWE0: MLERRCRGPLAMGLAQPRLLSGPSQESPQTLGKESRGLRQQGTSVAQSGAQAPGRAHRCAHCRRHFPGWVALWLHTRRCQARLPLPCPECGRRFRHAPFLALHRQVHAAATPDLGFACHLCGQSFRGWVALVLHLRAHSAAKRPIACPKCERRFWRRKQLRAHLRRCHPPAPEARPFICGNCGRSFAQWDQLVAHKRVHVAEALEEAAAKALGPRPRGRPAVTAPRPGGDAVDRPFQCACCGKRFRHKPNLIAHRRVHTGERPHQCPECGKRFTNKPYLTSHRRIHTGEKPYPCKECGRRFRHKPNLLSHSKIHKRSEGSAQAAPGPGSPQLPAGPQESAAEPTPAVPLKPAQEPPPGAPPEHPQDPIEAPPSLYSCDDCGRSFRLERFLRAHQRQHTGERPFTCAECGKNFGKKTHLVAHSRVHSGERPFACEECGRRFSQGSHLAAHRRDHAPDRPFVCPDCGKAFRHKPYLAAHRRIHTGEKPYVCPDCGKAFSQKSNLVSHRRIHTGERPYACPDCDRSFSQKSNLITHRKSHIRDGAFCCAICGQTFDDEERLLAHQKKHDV

How the values were obtained:
Assay in all cases: log2 fold change, soluble protein after heating vs DMSO (PISA); higher = thermal stabilisation; K562 cells, 10 uM, 30 min; active = over 0.2 and 3.5 SD of the protein, either way, in both replicates (recomputed)
erlotinib = compound: C#Cc1cccc(Nc2ncnc3cc(OCCOC)c(OCCOC)cc23)c1 [erlotinib]
Method in brief: (§1)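 K562 cells at 2×10^6 cells/mL were treated with 10 μM compound for 30 min. Aliquots were heated for 3 min across 48°C-58°C, pooled, and extracted in PBS with 0.5% NP-40 at 4°C; soluble protein was the supernatant after 21,000xg for 90 min. Soluble protein was quantified by TMTpro 16plex LC-MS/MS with channel sums equalised, and reported as log2 fold change in thermal stability against DMSO controls, with values from duplicates.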

[1] = compound: C/C(=N\NC(=O)C1=CC(=CC=C1)S(=O)(=O)N2CCOCC2)/C3=C(C=CC(=C3)Cl)O
Method in brief: as §1

[2] = compound: C1=CC(=C(C=C1Cl)C2=NC3=NC=CN=C3C(=N2)NC4=CC=NC=C4)F
Method in brief: as §1

[3] = compound: C1=CC(=CC=C1C2=NC3=C(N2)C=C(C=C3)C(=O)N)OC4=CC=C(C=C4)Cl
Method in brief: as §1

[4] = compound: C1=CC2=C(C=CC(=C2)/C=C\3/C(=O)NC(=NCC4=CC=CS4)S3)N=C1
Method in brief: as §1

[5] = compound: C1=CC2=NC=CN=C2C=C1/C=C/3\C(=O)NC(=O)S3
Method in brief: as §1

[6] = compound: C1=CC=C(C=C1)C2=NC(=C(N2)C3=CC=NC=C3)C4=CC(=C(C=C4)Cl)O
Method in brief: as §1

[7] = compound: C1=CC=C2C(=C1)C3=NNC4=CC=CC(=C43)C2=O
Method in brief: as §1

[8] = compound: C1CCN(C1)C(=O)NC2=CC=CC(=C2)NC3=NC=C(C(=N3)NCCC4=CN=CN4)Br
Method in brief: as §1

[9] = compound: C1CN(CCC1(CC2=CC=C(C=C2)Cl)N)C3=NC=NC4=C3C=CN4
Method in brief: as §1

IRAK-1-4 Inhibitor I = compound: C1COCCN1CCN2C3=CC=CC=C3N=C2NC(=O)C4=CC(=CC=C4)[N+](=O)[O-] [IRAK-1-4 Inhibitor I]
Method in brief: as §1

ibrutinib = compound: C=CC(=O)N1CCC[C@@H](n2nc(-c3ccc(Oc4ccccc4)cc3)c3c(N)ncnc32)C1 [ibrutinib]
Method in brief: as §1

[10] = compound: CC(=O)c1cnc2ccc(-c3cc(Cl)c(O)c(Cl)c3)nc2c1N[C@H]1CC[C@H](CN(C)C)CC1
Method in brief: as §1

ralimetinib = compound: CC(C)(C)Cn1c(N)nc2ccc(-c3[nH]c(C(C)(C)C)nc3-c3ccc(F)cc3)nc21 [ralimetinib]
Method in brief: as §1

[11] = compound: CC(C)(O)CC(=O)NCCn1ccc2ncnc(Nc3ccc(Oc4cccc(C(F)(F)F)c4)c(Cl)c3)c21
Method in brief: as §1

[12] = compound: CC(C)C1=C2N=C(C=C(N2N=C1)NCC3=CC=CC=C3)NCCCCCCN
Method in brief: as §1

[13] = compound: CC(C)C[C@@H](C=O)NC(=O)[C@H](CC(C)C)NC(=O)[C@H](CC(C)C)NC(=O)OCc1ccccc1
Method in brief: as §1

pinometostat = compound: CC(C)N(C[C@H]1O[C@@H](n2cnc3c(N)ncnc32)[C@H](O)[C@@H]1O)[C@H]1C[C@@H](CCc2nc3cc(C(C)(C)C)ccc3[nH]2)C1 [pinometostat]
Method in brief: as §1

[14] = compound: CC1=C(C(CC(=O)N1)C2=CC=C(C=C2)C(F)(F)F)C(=O)NC3=C(C=C4C(=C3)C=NN4)F
Method in brief: as §1

[15] = compound: CC1=C(C2=C(C=C1)C(=O)C3=CC=CC=C3N2CCCN)C
Method in brief: as §1

Measured: log2 fold change

RCC2 (UniProt Q9P258)
inactive: erlotinib -0.041 | [1] 0.049 | [2] 0.034 | [3] -0.007 | [4] 0.03 | [5] -0.017 | [6] -0.037 | [7] 0.019 | [8] -0.01 | [9] -0.007 | IRAK-1-4 Inhibitor I 0.019 | ibrutinib -0.01 | [10] -0.038 | ralimetinib -0.023 | [11] -0.02 | [12] -0.044 | [13] -0.003 | pinometostat -0.028 | [14] -0.042 | [15] 0.141

RER1 (UniProt O15258)
inactive: erlotinib 0.009 | [1] -0.022 | [2] 0.003 | [3] -0.023 | [4] -0.042 | [5] 0.07 | [6] 0.04 | [7] -0.013 | [8] -0.028 | [9] 0.024 | IRAK-1-4 Inhibitor I 0.032 | ibrutinib -0.003 | [10] 0.092 | ralimetinib -0.033 | [11] 0.049 | [12] -0.063 | [13] 0.066 | pinometostat -0.056 | [14] -0.041 | [15] -0.001

RINT1 (UniProt Q6NUQ1)
inactive: erlotinib 0.097 | [1] 0.142 | [2] -0.354 | [3] -0.036 | [4] 0.187 | [5] -0.049 | [6] 0.05 | [7] 0.099 | [8] -0.128 | [9] -0.13 | IRAK-1-4 Inhibitor I -0.123 | ibrutinib -0.208 | [10] 0 | ralimetinib 0.183 | [11] 0.103 | [12] -0.151 | [13] 0.028 | pinometostat 0.226 | [14] 0.059 | [15] 0.017

RMND5A (UniProt Q9H871)
inactive: erlotinib -0.076 | [1] -0.047 | [2] -0.025 | [3] 0.029 | [4] 0.014 | [5] 0.028 | [6] -0.078 | [7] 0.017 | [8] 0.048 | [9] -0.067 | IRAK-1-4 Inhibitor I -0.007 | ibrutinib 0.004 | [10] -0.047 | ralimetinib 0.027 | [11] -0.002 | [12] 0.006 | [13] -0.024 | pinometostat -0.013 | [14] 0.028 | [15] -0.077

RNF213 isoform 4 (UniProt Q63HN8)
inactive: erlotinib 0.083 | [1] -0.183 | [2] -0.071 | [3] -0.004 | [4] 0.141 | [5] -0.245 | [6] -0.031 | [7] -0.051 | [8] 0.025 | [9] 0.047 | IRAK-1-4 Inhibitor I -0.128 | ibrutinib 0.041 | [10] -0.123 | ralimetinib -0.072 | [11] -0.076 | [12] -0.025 | [13] 0.17 | pinometostat 0.178 | [14] 0.176 | [15] 0.049

RNF126 (UniProt Q9BV68)
inactive: erlotinib 0.006 | [1] -0.056 | [2] 0.021 | [3] -0.016 | [4] 0.056 | [5] 0.005 | [6] -0.026 | [7] 0.002 | [8] -0.04 | [9] 0.035 | IRAK-1-4 Inhibitor I 0.003 | ibrutinib 0.055 | [10] 0.067 | ralimetinib -0.026 | [11] 0.025 | [12] 0.046 | [13] 0.003 | pinometostat -0.041 | [14] 0.05 | [15] -0.037

RNASEH2C (UniProt Q8TDP1)
inactive: erlotinib 0.012 | [1] 0.193 | [2] 0.051 | [3] 0.008 | [4] 0.152 | [5] -0.028 | [6] 0.006 | [7] 0.034 | [8] -0.058 | [9] -0.031 | IRAK-1-4 Inhibitor I 0.009 | ibrutinib 0.06 | [10] -0.092 | ralimetinib 0.013 | [11] -0.147 | [12] -0.244 | [13] 0.005 | pinometostat -0.062 | [14] -0.041 | [15] 0.134

RIOX2 (UniProt Q8IUF8)
inactive: erlotinib 0.069 | [1] -0.29 | [2] 0 | [3] 0.005 | [4] -0.073 | [5] -0.032 | [6] 0.037 | [7] 0.051 | [8] 0.053 | [9] -0.018 | IRAK-1-4 Inhibitor I -0.009 | ibrutinib -0.004 | [10] 0.049 | ralimetinib -0.035 | [11] -0.044 | [12] 0.023 | [13] -0.029 | pinometostat 0.009 | [14] -0.105 | [15] -0.045

RFT1 (UniProt Q96AA3)
inactive: erlotinib 0.015 | [1] -0.032 | [2] 0.021 | [3] 0.012 | [4] 0.034 | [5] 0.025 | [6] -0.036 | [7] -0.024 | [8] -0.029 | [9] 0.099 | IRAK-1-4 Inhibitor I 0.149 | ibrutinib 0.031 | [10] 0.031 | ralimetinib -0.049 | [11] 0.006 | [12] 0.08 | [13] -0.044 | pinometostat -0.042 | [14] -0.007 | [15] 0.014

RFESD isoform 2 (UniProt Q8TAC1)
inactive: erlotinib 0.025 | [1] 0.015 | [2] 0.012 | [3] 0.07 | [4] 0.001 | [5] 0.043 | [6] 0.017 | [7] -0.058 | [8] 0.018 | [9] 0.068 | IRAK-1-4 Inhibitor I 0.042 | ibrutinib 0.023 | [10] 0.016 | ralimetinib -0.048 | [11] -0.104 | [12] 0.114 | [13] 0.059 | pinometostat -0.052 | [14] 0.043 | [15] 0

REEP3 (UniProt Q6NUK4)
inactive: erlotinib 0.068 | [1] 0.141 | [2] -0.071 | [3] -0.004 | [4] -0.062 | [5] 0.091 | [6] -0.169 | [7] -0.05 | [8] -0.111 | [9] -0.068 | IRAK-1-4 Inhibitor I -0.097 | ibrutinib 0.015 | [10] -0.187 | ralimetinib -0.054 | [11] 0.032 | [12] 0.029 | [13] 0.049 | pinometostat 0.122 | [14] 0.015 | [15] 0.078

RNF123 isoform 2 (UniProt Q5XPI4)
inactive: erlotinib 0.076 | [1] 0.003 | [2] 0.039 | [3] -0.025 | [4] 0.029 | [5] 0.033 | [6] -0.04 | [7] -0.017 | [8] 0.012 | [9] 0.025 | IRAK-1-4 Inhibitor I -0.144 | ibrutinib -0.014 | [10] 0.009 | ralimetinib 0.003 | [11] -0.069 | [12] -0.122 | [13] 0.028 | pinometostat -0.032 | [14] -0.001 | [15] -0.023

RCHY1 (UniProt Q96PM5)
inactive: erlotinib -0.045 | [1] 0.03 | [2] 0.047 | [3] 0.011 | [4] -0.002 | [5] 0.026 | [6] 0 | [7] -0.046 | [8] -0.064 | [9] 0.07 | IRAK-1-4 Inhibitor I 0.105 | ibrutinib 0.08 | [10] 0.047 | ralimetinib 0.025 | [11] 0.009 | [12] 0.134 | [13] 0.008 | pinometostat -0.034 | [14] 0.07 | [15] -0.043

RING1 (UniProt Q06587)
inactive: erlotinib -0.004 | [1] -0.242 | [2] 0.094 | [3] 0.046 | [4] 0.068 | [5] -0.015 | [6] -0.072 | [7] 0.12 | [8] -0.033 | [9] 0.02 | IRAK-1-4 Inhibitor I -0.016 | ibrutinib -0.007 | [10] -0.068 | ralimetinib -0.017 | [11] -0.352 | [12] -0.059 | [13] 0.045 | pinometostat -0.002 | [14] -0.061 | [15] 0.033

Two neighbouring records out of the list so far, quoted:
REEP3 (UniProt Q6NUK4)
inactive: erlotinib 0.068 | [1] 0.141 | [2] -0.071 | [3] -0.004 | [4] -0.062 | [5] 0.091 | [6] -0.169 | [7] -0.05 | [8] -0.111 | [9] -0.068 | IRAK-1-4 Inhibitor I -0.097 | ibrutinib 0.015 | [10] -0.187 | ralimetinib -0.054 | [11] 0.032 | [12] 0.029 | [13] 0.049 | pinometostat 0.122 | [14] 0.015 | [15] 0.078

RNF123 isoform 2 (UniProt Q5XPI4)
inactive: erlotinib 0.076 | [1] 0.003 | [2] 0.039 | [3] -0.025 | [4] 0.029 | [5] 0.033 | [6] -0.04 | [7] -0.017 | [8] 0.012 | [9] 0.025 | IRAK-1-4 Inhibitor I -0.144 | ibrutinib -0.014 | [10] 0.009 | ralimetinib 0.003 | [11] -0.069 | [12] -0.122 | [13] 0.028 | pinometostat -0.032 | [14] -0.001 | [15] -0.023

The list goes on:

REPIN1 isoform 4 (UniProt Q9BWE0)
inactive: erlotinib 0.081 | [1] -0.017 | [2] 0.035 | [3] -0.009 | [4] -0.027 | [5] 0.003 | [6] 0.02 | [7] -0.012 | [8] -0.04 | [9] 0.014 | IRAK-1-4 Inhibitor I 0.036 | ibrutinib 0.057 | [10] 0.003 | ralimetinib -0.019 | [11] -0.07 | [12] 0.021 | [13] -0.002 | pinometostat -0.017 | [14] 0.043 | [15] 0.061
